Data on 63 molecules can be found in PubChem BioAssay AID493014 (National Center for Advancing Translational Sciences (NCATS), 2011).

Some of the results follow. Further columns of the screen follow, without active or inactive calls. Most of these compounds were active or inconclusive in the main read-out, so they are no random draw. Words in brackets tell the shape of the fitted curve; partial curves, single points and poor fits give uncertain potencies.

The nature of the assay: qHTS Assay to Find Inhibitors of Chronic Active B-Cell Receptor Signaling. As to conditions: ABC-DLBCL IkBa-CBG/CBR reporter, luminescence ratio (green luciferase fused to IkBa over red control in TMD8 lymphoma cells), 4 h. Put shortly:
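Concentration-response series (up to 46 uM) were applied to TMD8 dual-reporter cells for 4 h at 37C with doxycycline. Green/red ratio, after filter-overlap correction, defined %Activity; red signal alone was normalised to basal cells and zero luminescence.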

Setting [1] is: measured here: CBR red luminescence, cell number.
Where [2] appears, read: measured here: IkBa-CBG green luminescence.

On to `CC1CCCC(C)N1/N=C/c1ccc(C#N)cc1` (stereo not given), for which, under setting [1], the AC50 was 15.8 µM [rising, single point].

As for `COc1ccc(NC(=O)c2nc3nc(C)cc(C(F)F)n3n2)cc1OC`, under setting [1], the AC50 was 16.4 µM [rising, partial curve, poor fit].

As for `CS(=O)(=O)NCc1ccc(C(=O)NCc2ccccc2)cc1`, the AC50 under setting [1] was 0.13 µM [rising, full curve, poor fit].

On to `Cc1ccc(NC(=O)COC(=O)CNC(=O)c2cccc([N+](=O)[O-])c2)cc1S(=O)(=O)N1CCCCCC1`, for which the AC50 under setting [1] is 29.1 µM [rising, partial curve, poor fit].

In the case of `O=[N+]([O-])c1ccccc1Nc1nc(-c2cccnc2)cs1`, the AC50 under setting [2] was 10 µM [falling, partial curve, poor fit].

Consider `O=C(Nc1ccc(-c2nc3cccnc3s2)cc1)c1ccco1`, for which the AC50 under setting [1] was 0.206 µM [rising, full curve, poor fit].

With `CCOC(=O)C1=C(COC(=O)c2ccc(OC)c(OC)c2OC)NC(=O)NC1C` (stereo not given), the AC50 under setting [1] was 25.9 µM [falling, single point].

With `CCCCn1c(N)c(N(CC(C)C)C(=O)C2CCN(S(=O)(=O)c3ccc(C)cc3C)CC2)c(=O)[nH]c1=O`, the AC50 under setting [1] was 32.6 µM [falling, partial curve, poor fit].

As to `CSc1ncccc1C(=O)Nc1nc2ccc(F)cc2s1`, the AC50 under setting [1] is 14.1 µM [falling, partial curve, poor fit] and the AC50 under setting [2] was 1.41 µM [rising, full curve, poor fit].

On to `COc1ccc(C(=O)N2c3ccccc3C(=O)OC2c2ccc3c(c2)OCO3)cc1` (stereo not given), for which, under setting [1], the AC50 was 2.91 µM [falling, full curve].

Turning to `CN(C(=O)c1ccc2c(c1)SC1=NS(=O)(=O)CCN12)C(c1ccccc1)c1ccccc1`, the AC50 under setting [1] is 16.4 µM [rising, partial curve, poor fit].

Consider `CC(C)(C)C(=O)Nc1cc2nn(-c3ccccc3)nc2cc1Cl`, for which the AC50 under setting [1] is 2.91 µM [rising, full curve, poor fit].

As for `Cc1cc2ccccc2n1CCNC(=O)C(C)C`, the AC50 under setting [1] was 29.1 µM [rising, single point].

As for `CC1=CC(C)(C)N(S(=O)(=O)c2ccc(C)cc2)c2cc(C)ccc21`, the AC50 was 1.16 µM [rising, full curve] under setting [1] and 1.64 µM [falling, full curve] under setting [2].

Consider `CN1OC(CC(=O)O)N(c2ccc(Cl)cc2)C1=O` (stereo not given), for which, under setting [1], the AC50 is 18.4 µM [rising, partial curve].

As for `Cc1ccc(NC(=O)c2nnn(-c3ccc4c(c3)OCCO4)c2N)cc1`, under setting [1], the concentration at half-maximal activity (AC50) is 3.55 µM [falling, partial curve, poor fit].

For the molecule `CCCOC(=O)C1=C(C)NC2=C(C(=O)C(C(=O)OC)C(C)C2)C1c1ccc(N(C)C)cc1` (stereo not given), the AC50 under setting [1] was 15.8 µM [rising, partial curve, poor fit].

Consider `C=CC[C@H](CC(=O)N(CCO)Cc1ccccc1)C(=O)N[C@H](COC(=O)[C@H](CC=C)CC(=O)OC(C)(C)C)Cc1ccccc1`, for which the AC50 under setting [1] is 29.1 µM [falling, single point].

Consider `Cc1nonc1CC(=O)N1CCc2c([nH]c3ccccc23)C1c1ccccc1F` (stereo not given), for which, under setting [1], the AC50 is 0.631 µM [falling, partial curve, poor fit].

In the case of `COc1ccc(Cl)cc1NC(=O)COC(=O)Cc1cc(OC)c(OC)c(OC)c1`, the AC50 under setting [1] is 4.11 µM [rising, partial curve, poor fit].

In the case of `Brc1ccccc1C1N=C(c2ccccc2)NO1` (stereo not given), the AC50 under setting [1] was 17.8 µM [falling, single point].

For the molecule `O=C(O)CSc1nc2ccccc2s1`, the AC50 under setting [1] was 11.2 µM [rising, partial curve].

`CCc1nnc(NC(=O)C2Cc3ccccc3CN2S(=O)(=O)c2cccs2)s1` (stereo not given): under setting [1], the AC50 is 29.1 µM [falling, single point].

With `CC(=O)OCC(OC(C)=O)C(OC(C)=O)C(OC(C)=O)C(=O)Nc1ccc(C)cc1C` (stereo not given), under setting [1], the AC50 was 14.1 µM [rising, partial curve, poor fit].

`O=C(/C=C/c1ccc(O)c(O)c1)c1ccccc1O`: under setting [1], the AC50 was 0.1 µM [falling, full curve, poor fit].

As for `CCOC(=O)c1sc(NC(=O)Cc2ccc(C)cc2)nc1C`, the concentration at half-maximal activity (AC50) under setting [1] was 10 µM [falling, partial curve].

For `Cc1nc(-c2c(-c3ccc(O)cc3O)noc2C(F)(F)F)cs1`, the AC50 under setting [1] was 29.1 µM [falling, single point].

Regarding `CCN(CC)c1ccc(C(=O)c2ccccc2C(=O)O)c(O)c1`, under setting [1], the AC50 is 25.9 µM [falling, partial curve, poor fit].

With `CC(=O)Nc1ccc(NC(=O)c2ccc(CSc3ccccc3)o2)cc1`, under setting [1], the AC50 was 0.794 µM [falling, full curve, poor fit].

Take `O=C(CSc1n[nH]c(=O)n1Cc1ccco1)c1ccc2c(c1)OCCO2`: the AC50 under setting [1] is 0.501 µM [falling, partial curve, poor fit].

For the molecule `Cc1cc(Oc2ccc(N)cn2)cc(C)c1Cl`, the AC50 under setting [1] is 4.47 µM [rising, single point].

On to `O=C(CSC1=NCCN1)NC12CC3CC(CC(C3)C1)C2`, for which, under setting [1], the AC50 is 15.8 µM [falling, single point].

For the molecule `S=c1[nH]nc(-c2ccc(Cl)cc2Cl)n1Cc1ccccc1`, the AC50 under setting [1] is 23.1 µM [rising, single point].

On to `O=C(c1c(O)c2ccccc2oc1=O)C1CCCCC1`, for which, under setting [1], the AC50 is 23.1 µM [falling, single point].

Consider `Cc1nc(-c2ccc3c(c2)OCCO3)cs1`, for which, under setting [1], the AC50 is 1.12 µM [rising, partial curve, poor fit].

With `Oc1c(Br)cc(Br)cc1C=Nc1ccc2[nH]ncc2c1`, the AC50 under setting [1] is 15.8 µM [falling, partial curve].

As to `COc1ccc(NS(=O)(=O)c2ccc3oc(Nc4ccc5c(c4)OCCO5)nc3c2)cc1`, the AC50 under setting [1] is 0.92 µM [rising, full curve, poor fit].

Take `Cc1[nH]c2ccccc2c1CCN(Cc1cccs1)C(=S)Nc1ccccc1`: the AC50 under setting [1] was 3.55 µM [rising, partial curve, poor fit].

Turning to `Cc1ccc2nc(NC(=O)CCn3c(=O)sc4ccccc43)sc2c1`, the AC50 under setting [1] was 29.1 µM [falling, single point].

As for `COc1ccc(S(=O)(=O)N2CCOC2CNC(=O)C(=O)NCCCc2ccccc2)cc1` (stereo not given), under setting [1], the AC50 is 0.708 µM [rising, full curve, poor fit].

In the case of `CCCc1cc(C(=O)Nc2cc(Br)ccc2O)no1`, under setting [1], the AC50 is 0.259 µM [rising, full curve, poor fit].

Turning to `Cc1ccc(Oc2ccc(NC(=O)Cn3ccsc3=N)cc2)cc1`, the half-maximal activity concentration (AC50) under setting [1] was 9.2 µM [falling, partial curve, poor fit].

`COc1cccc(C(=O)O/N=C(\C)c2cnccn2)c1`: the AC50 under setting [1] was 6.31 µM [rising, single point].

As for `O=C(NC(=S)NN1CCCCC1c1cccnc1)c1ccc(Cl)cc1Cl` (stereo not given), the AC50 under setting [1] was 6.31 µM [rising, single point].

For the molecule `O=S(=O)([O-])CCC[N+]1(CC#Cc2ccccc2)CCCCC1`, the AC50 under setting [1] is 11.2 µM [rising, partial curve, poor fit].

With `C=CCSc1nc(=O)n2cccc(C)c2n1`, the AC50 under setting [1] was 16.4 µM [rising, partial curve, poor fit].

As for `O=C(c1ccccc1)[C@@H]1[C@@H]2C(=O)N(c3ccc(F)cc3)C(=O)[C@@H]2C2CCCN21` (stereo not given in full), the AC50 under setting [1] was 10 µM [falling, partial curve].

For the molecule `O=C(O)c1ccc(Nc2nc3ccccc3nc2NS(=O)(=O)c2ccc(F)cc2)cc1`, the AC50 under setting [1] was 0.501 µM [falling, full curve].

`CCOc1ccc(CN(C)c2nc(-c3cccnc3)nc3ccccc23)cc1OC`: the AC50 under setting [1] was 35.5 µM [falling, single point].

Take `CC(Nc1ccc(Br)cn1)c1cc(Cl)ccc1O` (stereo not given): under setting [1], the AC50 is 2.31 µM [falling, partial curve, poor fit].

As for `COc1ccc(S(=O)(=O)N(C)C[C@H]2Oc3c(NC(=O)C4CCCCC4)cccc3C(=O)N([C@H](C)CO)C[C@@H]2C)cc1`, the half-maximal activity concentration (AC50) under setting [1] is 6.51 µM [falling, single point].

Turning to `CCOC(=O)c1c(Nc2ccc(Cl)cc2)sc(/C=C2\C=Nc3ccccc32)c1O`, the AC50 under setting [1] was 0.146 µM [falling, full curve, poor fit].

As to `CCN(C(=O)COc1ccccc1[N+](=O)[O-])C1CCS(=O)(=O)C1` (stereo not given), under setting [1], the AC50 is 13 µM [falling, partial curve].

For the molecule `Cn1c(=O)c2c(nc(CN3CCc4ccccc4C3)n2Cc2ccccc2F)n(C)c1=O`, the AC50 under setting [1] is 29.1 µM [falling, single point].

Consider `Cn1cccc1-c1nc2ccc(NC(=O)c3ccco3)cc2[nH]1`, for which, under setting [1], the AC50 is 4.61 µM [falling, full curve, poor fit].

On to `Cc1cc(C(=O)N=Nc2c(O)n(C(C)C)c3ccccc23)n[nH]1`, for which the AC50 under setting [1] was 8.91 µM [rising, partial curve].

Regarding `O=c1c2c(-c3ccc([N+](=O)[O-])cc3)ccnc2[nH]n1-c1ccccc1`, under setting [1], the AC50 was 11.2 µM [rising, partial curve, poor fit].

With `Cc1ccc(OCCC(=O)OCC(=O)NC(=O)c2ccccc2)cc1`, the AC50 under setting [1] is 14.6 µM [rising, partial curve].

Regarding `Fc1ccc(-c2nnc(-c3ccc(Cl)cc3)o2)cc1`, under setting [1], the AC50 was 0.251 µM [rising, full curve, poor fit].

On to `COc1ccc(OCc2cccc(C(=O)Nc3ccc(CN4CCCCC4)cc3)c2)cc1`, for which the AC50 under setting [1] was 32.6 µM [falling, single point].

As for `CNC(=S)Nc1ccc(OC(F)(F)F)cc1`, the AC50 under setting [1] is 35.5 µM [rising, single point].

On to `COc1ccccc1C1CC(=O)n2c(nc(-c3ccccc3)c2-c2ccccc2)S1` (stereo not given), for which the AC50 under setting [1] is 18.4 µM [falling, partial curve, poor fit].

`CC(=O)Nc1cccc(Oc2nc(C)cc(C)c2C#N)c1`: the AC50 under setting [1] was 29.1 µM [rising, single point].
